According to article PMC7953810, “Divergent CPEB prion-like domains reveal different assembly mechanisms for a generic amyloid-like fold” (BMC Biology, 2021):
Results are given in words; binding and its absence hold for the method and conditions named. For some assays here: A result given as binding can be weak or reduced; the word gives no strength.

What was measured:
[1] = target: T1, scrambled version of QBP1 (SCR); test: condition: 180 μM ApCPEB PLD injected into 84 μM SCR; ITC; ApCPEB PLD (180 μM) injected into the cell loaded with peptide (495 μM QBP1 or 84 μM SCR), VP-ITC, 25 °C, PBS pH 7.4; no quantitative analysis of the titration curves; both purified
T1 sequence (peptide, N-terminal acetylation; C-terminal amidation): WPIWKGWF

[2] = target: T2, Q-binding peptide 1, minimal active core (QBP1-M8); test: ITC; ApCPEB PLD (180 μM) injected into the cell loaded with peptide (495 μM QBP1 or 84 μM SCR), VP-ITC, 25 °C, PBS pH 7.4; no quantitative analysis of the titration curves; both purified
T2 sequence (peptide, N-terminal acetylation; C-terminal amidation): WKWWPGIF

binding [1]: no binding
binding [2]: binds
Substance: neuronal Aplysia CPEB prion-like domain (residues 1-160) (domain or fragment)
